Assay results published in the supplement of paper PMC10849652.
The other results are listed elsewhere or left out.

The chains behind the UniProt entries cited, without tags or fusion partners. Where a name states a change or a piece, a line headed by the entry shows the natural chain unless it says otherwise.
UniProt Q4G0A6: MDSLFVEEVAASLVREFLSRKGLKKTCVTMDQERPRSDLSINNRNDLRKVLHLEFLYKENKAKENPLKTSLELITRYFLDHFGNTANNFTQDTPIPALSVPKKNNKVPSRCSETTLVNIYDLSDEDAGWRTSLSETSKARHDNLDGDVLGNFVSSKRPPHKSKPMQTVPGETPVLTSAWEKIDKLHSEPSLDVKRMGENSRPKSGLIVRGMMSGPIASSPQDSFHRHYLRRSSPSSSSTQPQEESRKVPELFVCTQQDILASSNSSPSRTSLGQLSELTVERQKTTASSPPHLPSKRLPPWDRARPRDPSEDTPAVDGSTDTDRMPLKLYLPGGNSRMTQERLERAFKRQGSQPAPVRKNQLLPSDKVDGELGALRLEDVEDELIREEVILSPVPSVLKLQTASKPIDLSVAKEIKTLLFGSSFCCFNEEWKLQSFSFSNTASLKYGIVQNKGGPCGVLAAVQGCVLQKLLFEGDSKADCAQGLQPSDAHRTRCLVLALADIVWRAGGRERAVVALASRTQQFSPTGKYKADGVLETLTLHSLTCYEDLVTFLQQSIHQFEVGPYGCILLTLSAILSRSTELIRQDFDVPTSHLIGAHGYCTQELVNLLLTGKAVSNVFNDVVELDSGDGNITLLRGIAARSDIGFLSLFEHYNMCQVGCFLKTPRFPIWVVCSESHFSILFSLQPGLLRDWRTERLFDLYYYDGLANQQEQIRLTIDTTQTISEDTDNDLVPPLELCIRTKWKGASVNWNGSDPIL
UniProt Q96EY8: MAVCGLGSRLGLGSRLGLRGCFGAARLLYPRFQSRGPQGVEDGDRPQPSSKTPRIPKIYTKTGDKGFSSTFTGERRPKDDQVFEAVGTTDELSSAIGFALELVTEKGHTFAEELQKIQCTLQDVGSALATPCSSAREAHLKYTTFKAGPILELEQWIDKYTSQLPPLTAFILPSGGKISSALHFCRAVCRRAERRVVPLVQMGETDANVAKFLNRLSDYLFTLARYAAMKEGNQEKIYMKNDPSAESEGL
UniProt Q99550: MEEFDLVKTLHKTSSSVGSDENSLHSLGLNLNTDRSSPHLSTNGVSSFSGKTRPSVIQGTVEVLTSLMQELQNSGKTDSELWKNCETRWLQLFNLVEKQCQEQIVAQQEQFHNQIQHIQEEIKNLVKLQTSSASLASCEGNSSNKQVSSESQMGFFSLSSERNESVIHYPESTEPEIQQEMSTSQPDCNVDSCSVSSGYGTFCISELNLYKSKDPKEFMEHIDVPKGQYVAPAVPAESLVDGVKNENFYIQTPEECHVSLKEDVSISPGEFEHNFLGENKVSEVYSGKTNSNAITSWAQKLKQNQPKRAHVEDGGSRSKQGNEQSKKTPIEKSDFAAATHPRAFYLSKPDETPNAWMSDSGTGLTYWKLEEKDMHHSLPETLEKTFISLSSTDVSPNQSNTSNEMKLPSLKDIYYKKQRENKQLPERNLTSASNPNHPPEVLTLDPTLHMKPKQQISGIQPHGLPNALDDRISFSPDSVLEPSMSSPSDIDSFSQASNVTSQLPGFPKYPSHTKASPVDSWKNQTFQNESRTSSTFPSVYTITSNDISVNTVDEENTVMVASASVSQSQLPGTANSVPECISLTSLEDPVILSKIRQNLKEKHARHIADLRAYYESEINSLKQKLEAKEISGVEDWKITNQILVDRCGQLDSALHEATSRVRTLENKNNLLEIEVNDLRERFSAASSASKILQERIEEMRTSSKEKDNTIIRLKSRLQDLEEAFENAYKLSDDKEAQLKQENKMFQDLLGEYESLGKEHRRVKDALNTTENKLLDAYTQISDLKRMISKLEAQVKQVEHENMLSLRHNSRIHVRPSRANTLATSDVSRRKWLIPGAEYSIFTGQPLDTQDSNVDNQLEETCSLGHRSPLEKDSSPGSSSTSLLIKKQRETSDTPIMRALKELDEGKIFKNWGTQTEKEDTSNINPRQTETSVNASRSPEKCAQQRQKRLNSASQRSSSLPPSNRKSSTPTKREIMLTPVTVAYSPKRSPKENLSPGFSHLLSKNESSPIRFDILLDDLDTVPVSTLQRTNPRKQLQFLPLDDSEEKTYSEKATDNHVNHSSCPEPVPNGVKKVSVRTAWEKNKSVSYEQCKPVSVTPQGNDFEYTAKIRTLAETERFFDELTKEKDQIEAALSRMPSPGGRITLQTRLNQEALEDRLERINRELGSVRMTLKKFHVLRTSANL
UniProt Q8NBR6: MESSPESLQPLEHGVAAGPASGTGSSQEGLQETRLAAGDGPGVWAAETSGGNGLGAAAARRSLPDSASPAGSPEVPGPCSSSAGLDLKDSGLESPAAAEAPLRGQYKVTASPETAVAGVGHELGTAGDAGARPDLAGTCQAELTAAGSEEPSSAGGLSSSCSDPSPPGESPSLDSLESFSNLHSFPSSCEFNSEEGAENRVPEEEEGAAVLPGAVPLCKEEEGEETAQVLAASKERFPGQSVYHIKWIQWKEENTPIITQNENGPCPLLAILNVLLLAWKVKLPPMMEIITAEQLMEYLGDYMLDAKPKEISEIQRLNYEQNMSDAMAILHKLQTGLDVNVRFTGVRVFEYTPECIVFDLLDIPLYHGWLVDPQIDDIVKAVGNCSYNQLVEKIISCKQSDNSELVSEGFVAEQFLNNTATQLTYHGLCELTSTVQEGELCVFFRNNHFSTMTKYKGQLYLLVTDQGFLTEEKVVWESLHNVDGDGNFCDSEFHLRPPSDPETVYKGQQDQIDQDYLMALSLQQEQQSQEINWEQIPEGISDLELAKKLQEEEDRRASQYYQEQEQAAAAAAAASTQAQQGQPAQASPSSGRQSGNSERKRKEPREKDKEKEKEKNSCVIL
UniProt O75970: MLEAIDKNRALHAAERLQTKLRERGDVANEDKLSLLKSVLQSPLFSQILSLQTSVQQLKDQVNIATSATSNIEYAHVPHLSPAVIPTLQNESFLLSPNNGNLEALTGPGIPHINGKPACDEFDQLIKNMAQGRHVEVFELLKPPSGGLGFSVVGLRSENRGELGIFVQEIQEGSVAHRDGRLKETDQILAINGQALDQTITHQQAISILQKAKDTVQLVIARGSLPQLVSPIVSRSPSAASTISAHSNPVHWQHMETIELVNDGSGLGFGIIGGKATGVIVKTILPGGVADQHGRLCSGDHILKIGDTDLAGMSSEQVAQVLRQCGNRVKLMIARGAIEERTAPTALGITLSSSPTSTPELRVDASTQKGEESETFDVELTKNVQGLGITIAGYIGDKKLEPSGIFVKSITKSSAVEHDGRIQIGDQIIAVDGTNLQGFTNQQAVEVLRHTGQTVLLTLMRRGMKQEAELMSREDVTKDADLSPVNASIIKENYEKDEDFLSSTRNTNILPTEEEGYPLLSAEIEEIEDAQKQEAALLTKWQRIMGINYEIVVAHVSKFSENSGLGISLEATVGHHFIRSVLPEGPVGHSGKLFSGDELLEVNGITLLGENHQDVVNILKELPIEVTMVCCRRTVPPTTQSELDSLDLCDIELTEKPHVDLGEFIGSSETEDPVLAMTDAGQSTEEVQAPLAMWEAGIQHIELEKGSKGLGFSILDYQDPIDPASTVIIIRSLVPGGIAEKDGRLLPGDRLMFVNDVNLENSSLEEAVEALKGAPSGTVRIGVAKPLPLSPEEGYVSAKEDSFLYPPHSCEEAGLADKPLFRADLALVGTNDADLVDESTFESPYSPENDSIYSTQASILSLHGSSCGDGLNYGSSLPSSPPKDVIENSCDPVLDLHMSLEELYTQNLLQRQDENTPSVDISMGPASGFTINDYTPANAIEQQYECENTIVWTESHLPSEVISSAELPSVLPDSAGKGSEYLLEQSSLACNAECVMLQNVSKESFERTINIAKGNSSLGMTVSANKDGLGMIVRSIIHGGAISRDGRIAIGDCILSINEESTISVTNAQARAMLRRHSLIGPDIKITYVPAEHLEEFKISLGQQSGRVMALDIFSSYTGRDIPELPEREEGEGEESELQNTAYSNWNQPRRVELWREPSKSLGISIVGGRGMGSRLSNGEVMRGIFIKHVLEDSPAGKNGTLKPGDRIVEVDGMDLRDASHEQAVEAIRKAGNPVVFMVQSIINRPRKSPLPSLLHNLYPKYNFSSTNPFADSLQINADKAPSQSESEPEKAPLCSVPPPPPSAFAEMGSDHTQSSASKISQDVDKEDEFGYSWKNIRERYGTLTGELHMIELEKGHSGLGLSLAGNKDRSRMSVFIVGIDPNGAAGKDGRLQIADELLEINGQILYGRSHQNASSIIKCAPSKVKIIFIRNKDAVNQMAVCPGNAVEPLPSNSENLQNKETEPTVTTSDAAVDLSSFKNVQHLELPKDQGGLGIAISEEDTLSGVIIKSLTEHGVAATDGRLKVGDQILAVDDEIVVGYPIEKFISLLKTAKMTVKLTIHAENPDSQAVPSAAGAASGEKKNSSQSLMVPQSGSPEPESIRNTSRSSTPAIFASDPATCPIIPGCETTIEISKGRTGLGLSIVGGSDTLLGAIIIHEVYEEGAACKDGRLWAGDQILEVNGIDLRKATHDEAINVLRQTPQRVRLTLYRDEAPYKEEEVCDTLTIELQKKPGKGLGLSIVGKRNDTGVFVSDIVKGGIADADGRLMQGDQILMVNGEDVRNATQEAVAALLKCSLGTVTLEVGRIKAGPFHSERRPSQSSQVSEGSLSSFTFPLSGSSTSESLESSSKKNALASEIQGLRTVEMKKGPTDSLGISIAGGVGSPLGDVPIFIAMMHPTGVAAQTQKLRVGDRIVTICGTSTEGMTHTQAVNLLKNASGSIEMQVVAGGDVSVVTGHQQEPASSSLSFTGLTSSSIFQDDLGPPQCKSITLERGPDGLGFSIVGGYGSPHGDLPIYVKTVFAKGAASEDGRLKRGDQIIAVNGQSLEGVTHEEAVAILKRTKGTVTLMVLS
UniProt Q8NDA8: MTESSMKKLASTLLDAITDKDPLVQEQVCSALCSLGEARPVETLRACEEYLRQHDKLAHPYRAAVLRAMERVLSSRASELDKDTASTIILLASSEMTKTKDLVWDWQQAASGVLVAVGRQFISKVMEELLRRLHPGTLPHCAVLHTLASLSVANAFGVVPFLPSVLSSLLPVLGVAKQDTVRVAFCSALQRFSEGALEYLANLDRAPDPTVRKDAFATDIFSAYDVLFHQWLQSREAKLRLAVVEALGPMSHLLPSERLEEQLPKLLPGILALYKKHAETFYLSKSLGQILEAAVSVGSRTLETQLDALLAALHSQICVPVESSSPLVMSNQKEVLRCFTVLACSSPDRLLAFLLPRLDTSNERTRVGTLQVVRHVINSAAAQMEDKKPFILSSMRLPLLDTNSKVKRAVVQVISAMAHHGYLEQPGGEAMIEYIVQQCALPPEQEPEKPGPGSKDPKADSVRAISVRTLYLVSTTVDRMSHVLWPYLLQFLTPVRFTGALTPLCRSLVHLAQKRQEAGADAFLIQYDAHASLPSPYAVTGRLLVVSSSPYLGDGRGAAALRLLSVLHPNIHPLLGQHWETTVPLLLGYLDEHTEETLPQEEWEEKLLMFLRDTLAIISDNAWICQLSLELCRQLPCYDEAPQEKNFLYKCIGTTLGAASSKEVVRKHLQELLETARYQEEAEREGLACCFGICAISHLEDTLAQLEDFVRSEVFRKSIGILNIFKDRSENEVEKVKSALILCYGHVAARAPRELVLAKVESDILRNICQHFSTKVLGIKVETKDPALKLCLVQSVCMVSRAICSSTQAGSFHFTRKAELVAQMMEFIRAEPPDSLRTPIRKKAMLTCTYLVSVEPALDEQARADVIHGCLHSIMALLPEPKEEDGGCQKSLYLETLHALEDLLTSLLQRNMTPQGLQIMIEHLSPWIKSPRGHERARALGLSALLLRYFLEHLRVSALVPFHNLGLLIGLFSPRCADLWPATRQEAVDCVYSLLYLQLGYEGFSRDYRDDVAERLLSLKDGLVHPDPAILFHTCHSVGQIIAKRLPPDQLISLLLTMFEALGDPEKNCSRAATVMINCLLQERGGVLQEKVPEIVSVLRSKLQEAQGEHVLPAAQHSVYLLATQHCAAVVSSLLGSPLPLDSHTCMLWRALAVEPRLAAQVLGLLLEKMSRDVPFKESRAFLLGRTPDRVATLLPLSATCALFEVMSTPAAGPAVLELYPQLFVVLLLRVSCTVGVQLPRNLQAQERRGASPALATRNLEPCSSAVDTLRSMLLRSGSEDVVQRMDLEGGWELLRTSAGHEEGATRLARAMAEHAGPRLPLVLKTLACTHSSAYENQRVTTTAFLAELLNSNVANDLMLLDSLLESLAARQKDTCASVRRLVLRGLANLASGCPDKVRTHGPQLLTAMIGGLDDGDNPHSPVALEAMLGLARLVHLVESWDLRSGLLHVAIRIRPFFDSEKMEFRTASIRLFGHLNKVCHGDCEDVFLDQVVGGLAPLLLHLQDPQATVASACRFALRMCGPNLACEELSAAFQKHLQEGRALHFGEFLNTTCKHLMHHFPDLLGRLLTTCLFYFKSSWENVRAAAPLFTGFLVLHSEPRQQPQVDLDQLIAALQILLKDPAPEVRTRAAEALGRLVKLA

What was measured:
Test in all cases: log2 fold change, soluble protein after heating vs DMSO (PISA); higher = thermal stabilisation; K562 lysate, 10 uM; active = over 0.2 and 3.5 SD of the protein, either way, in both replicates (recomputed)
[1] = compound: C1=CC=C(C=C1)[C@H](COC2=CC3=C(C=C2)NC(=O)N3)NC(=O)C4=CC=CN(C4=O)CC5=CC(=C(C=C5)F)F
How it was run: (§1)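 K562 pellets were dounce-homogenised in PBS pH 7.4 with 1 mM MgCl2, and the crude extract at 1 mg/mL protein was treated with 10 μM compound for 30 min. Aliquots were heated for 3 min across 48°C-58°C, pooled, and brought to 0.5% NP-40 at 4°C; soluble protein was the supernatant after 21,000xg for 90 min. Soluble protein was quantified by TMTpro 16plex LC-MS/MS with channel sums equalised, and reported as log2 fold change in thermal stability against DMSO controls, with values from duplicates.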

[2] = compound: CC1=C(SC2=C1C(=N[C@H](C3=NN=C(N32)C)CC(=O)N)C4=CC=C(C=C4)Cl)C
How it was run: as §1

[3] = compound: Cc1sc2c(c1C)C(c1ccc(Cl)cc1)=N[C@@H](CC(=O)OC(C)(C)C)c1nnc(C)n1-2
How it was run: as §1

[4] = compound: c1ccc([C@@H]2C[C@H]2NC2CCNCC2)cc1
How it was run: as §1

[5] = compound: CC1=C2C(=CC=C1)N=C(N(C2=O)C3=CC=CC=C3C)CN4C=NC5=C(N=CN=C54)N
How it was run: as §1

Measured: log2 fold change

MINDY4 (UniProt Q4G0A6)
inactive: [1] 0.14 | [2] -0.078 | [3] 0.01 | [4] -0.048

MRPL10 isoform 2 (UniProt Q7Z7H8)
inactive: [1] -0.053 | [2] 0.097 | [5] 0.023 | [3] -0.026 | [4] 0.016

MKNK2 (UniProt Q9HBH9)
inactive: [5] -0.035 | [3] 0.06

MRNIP (UniProt Q6NTE8)
inactive: [1] -0.187 | [2] -0.176 | [3] 0 | [4] -0.047

MICA (UniProt Q29983)
inactive: [1] -0.012 | [2] 0.053 | [4] -0.08

MRC2 (UniProt Q9UBG0)
inactive: [3] 0.209 | [4] -0.084

MME (UniProt P08473)
inactive: [1] -0.152 | [2] 0.041 | [3] 0.232 | [4] -0.001

MRM1 (UniProt Q6IN84)
inactive: [1] -0.025 | [2] 0.003 | [5] 0.077 | [3] -0.032 | [4] 0.031

MIGA2 (UniProt Q7L4E1)
inactive: [3] -0.062

Two records picked at random from the list so far:
MRC2 (UniProt Q9UBG0)
inactive: [3] 0.209 | [4] -0.084

MIGA2 (UniProt Q7L4E1)
inactive: [3] -0.062

Additional entries follow.

MILR1 (UniProt Q7Z6M3)
inactive: [5] -0.09

MLXIPL (UniProt Q9NP71)
inactive: [4] -0.051

MLF1 isoform 3 (UniProt P58340)
inactive: [5] 0.01 | [4] 0.006

MOCS2 (UniProt O96033)
inactive: [3] -0.091

MMAB (UniProt Q96EY8)
inactive: [1] 0.009 | [2] 0.031 | [5] -0.026 | [3] -0.023 | [4] -0.03

MPHOSPH9 (UniProt Q99550)
inactive: [1] -0.028 | [2] 0.06 | [5] 0.15 | [4] -0.066

MON1B (UniProt Q7L1V2)
inactive: [1] -0.009 | [2] 0.016 | [5] 0.012 | [3] -0.017 | [4] 0.001

MINDY2 (UniProt Q8NBR6)
inactive: [1] -0.129 | [2] 0.021 | [4] -0.022

MIPOL1 (UniProt Q8TD10)
inactive: [1] -0.268 | [2] -0.156 | [3] -0.204 | [4] 0.067

MNT (UniProt Q99583)
inactive: [5] 0.006 | [3] 0.134 | [4] -0.145

MLKL (UniProt Q8NB16)
inactive: [1] 0.065 | [2] 0.097 | [4] -0.047

MICAL1 isoform 4 (UniProt Q8TDZ2)
inactive: [1] -0.045 | [2] -0.007 | [5] 0.007 | [3] -0.035 | [4] -0.02

MON1A (UniProt Q86VX9)
inactive: [1] -0.007 | [2] 0.018 | [5] -0.063 | [3] 0.049 | [4] -0.014

MITF (UniProt O75030)
inactive: [5] 0.048 | [3] -0.043 | [4] 0.048

MIDEAS, A0A1C7CYX1
inactive: [3] 0.038

MKKS (UniProt Q9HB66)
inactive: [5] 0.014

MINK1 (UniProt Q8N4C8)
inactive: [1] 0.069 | [2] 0.092 | [5] -0.149 | [3] -0.066 | [4] 0.086

MPDZ (UniProt O75970)
inactive: [5] -0.024 | [3] -0.159 | [4] -0.09

MRPL15 (UniProt Q9P015)
inactive: [1] -0.016 | [2] 0.04 | [5] 0.003 | [3] 0.04 | [4] -0.212

MGMT (UniProt P16455)
inactive: [3] 0.159

MROH1 (UniProt Q8NDA8)
inactive: [1] -0.135 | [2] 0.08 | [3] 0.089 | [4] -0.084

MMGT1 (UniProt Q8N4V1)
inactive: [1] 0.026 | [2] 0 | [3] -0.024 | [4] 0.003

MPZL1 (UniProt O95297)
inactive: [1] 0.056 | [2] 0.006 | [5] -0.068 | [3] -0.042 | [4] 0.125
